No constants are given. Whether binding was seen depends on the method and setting. In cells and extracts the contact can be indirect. A yes stands for co-enrichment or nearness to the bait. Other partners may have been found.

Chains of the proteins cited; added tags and fusions are not shown.
UniProt Q93009: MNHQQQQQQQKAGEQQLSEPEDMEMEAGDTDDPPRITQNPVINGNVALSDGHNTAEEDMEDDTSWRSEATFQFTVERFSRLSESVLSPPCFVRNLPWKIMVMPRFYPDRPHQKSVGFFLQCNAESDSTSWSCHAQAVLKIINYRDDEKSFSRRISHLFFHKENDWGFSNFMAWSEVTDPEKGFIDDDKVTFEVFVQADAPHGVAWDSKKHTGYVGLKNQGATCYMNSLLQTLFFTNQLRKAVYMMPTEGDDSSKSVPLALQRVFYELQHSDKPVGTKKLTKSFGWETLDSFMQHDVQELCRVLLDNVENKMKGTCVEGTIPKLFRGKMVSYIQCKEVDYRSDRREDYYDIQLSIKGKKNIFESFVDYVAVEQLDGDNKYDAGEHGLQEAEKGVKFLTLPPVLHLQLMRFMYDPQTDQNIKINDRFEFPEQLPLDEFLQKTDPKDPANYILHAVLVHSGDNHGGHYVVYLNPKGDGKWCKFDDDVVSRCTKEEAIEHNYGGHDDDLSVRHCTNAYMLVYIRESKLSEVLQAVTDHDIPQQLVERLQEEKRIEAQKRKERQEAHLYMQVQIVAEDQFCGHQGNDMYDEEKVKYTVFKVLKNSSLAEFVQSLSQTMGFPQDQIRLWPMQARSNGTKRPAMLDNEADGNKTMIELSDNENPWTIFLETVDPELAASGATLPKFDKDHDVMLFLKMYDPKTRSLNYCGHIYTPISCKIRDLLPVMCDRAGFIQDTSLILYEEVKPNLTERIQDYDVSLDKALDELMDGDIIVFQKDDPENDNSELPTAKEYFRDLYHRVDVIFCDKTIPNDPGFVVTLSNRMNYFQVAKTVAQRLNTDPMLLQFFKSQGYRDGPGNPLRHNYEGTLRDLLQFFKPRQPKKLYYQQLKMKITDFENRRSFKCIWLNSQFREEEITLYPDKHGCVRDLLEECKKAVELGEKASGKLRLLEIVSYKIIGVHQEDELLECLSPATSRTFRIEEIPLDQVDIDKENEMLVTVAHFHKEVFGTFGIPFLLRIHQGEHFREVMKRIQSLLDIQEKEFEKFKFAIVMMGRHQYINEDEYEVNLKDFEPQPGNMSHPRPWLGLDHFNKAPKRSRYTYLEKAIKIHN

In the test the target is T1, Pol ι (bait of the silver stain / mass spectrometry experiment) (UniProt Q9UNA4).
T1 sequence: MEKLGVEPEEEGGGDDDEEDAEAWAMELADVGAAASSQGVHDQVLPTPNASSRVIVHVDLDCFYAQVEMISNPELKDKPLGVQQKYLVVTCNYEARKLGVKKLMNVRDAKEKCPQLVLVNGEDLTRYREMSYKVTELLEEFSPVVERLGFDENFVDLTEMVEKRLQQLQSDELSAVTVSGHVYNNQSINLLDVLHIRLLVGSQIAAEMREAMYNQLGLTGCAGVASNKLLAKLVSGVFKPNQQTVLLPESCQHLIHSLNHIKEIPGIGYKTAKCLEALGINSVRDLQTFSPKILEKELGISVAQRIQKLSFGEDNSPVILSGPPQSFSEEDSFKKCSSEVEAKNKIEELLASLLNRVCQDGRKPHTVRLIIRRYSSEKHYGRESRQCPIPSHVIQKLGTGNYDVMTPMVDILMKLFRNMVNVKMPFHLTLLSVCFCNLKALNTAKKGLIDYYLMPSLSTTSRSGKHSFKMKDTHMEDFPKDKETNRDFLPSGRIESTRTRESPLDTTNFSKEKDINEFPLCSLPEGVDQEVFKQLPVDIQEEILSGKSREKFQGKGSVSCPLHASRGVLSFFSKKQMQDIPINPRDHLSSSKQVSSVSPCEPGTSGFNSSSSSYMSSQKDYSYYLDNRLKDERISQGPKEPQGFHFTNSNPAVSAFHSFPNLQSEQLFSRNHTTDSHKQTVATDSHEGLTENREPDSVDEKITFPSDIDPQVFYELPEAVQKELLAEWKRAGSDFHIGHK
In words: affinity purification with mass spectrometry; proteins bound to Pol ι separated by SDS-PAGE, silver-stained, analysed by mass spectrometry; bait construct and cells not stated.

On to “USP7 (found by mass spectrometry among Pol ι bound proteins) (from UniProt Q93009 1-1102) (enzyme)”, for which the binding result is “binds”.

The values above are taken from paper PMC10894303.
